Measurements: paper PMC10163288
The other results are listed elsewhere or left out.

B1: il10ra_site1_sap_23_mot_HHH_b1_06914_000000280_0001_1_18_H_._HHH_b1_03421_0001_0000100007_0000001_0_0001 (protein)
chain: SSSSDEEERIEELLEEAEELAKNGNPREAAHVLQEALRLIFQLGNEELMELLWKLAKKLGSSSSS
B2: il10ra_site1_normal_mot_HHH_b2_06795_000000133_0001_42_56_H_._HHH_b2_06257_0001_0000200018_0000001_0 (protein)
chain: SSSSSDTEEELAELFLRVAKLREEGDEEEAKKLLEEIERLAEESNDERAKQAVRFLRQLLSSSSS
B3: il10ra_site1_normal_mot_ems_3hM_235_000000244_0001_46_64_H_._HHH_b2_04059_0001_0000100001_0000001_0 (protein)
chain: SSSSDVLEEVWELLREAAELEARGNPEEAREVLQEALELAEENNNELARFVVEHKLRALESSSSS
B4: il10ra_site1_normal_mot_HHH_b1_01879_000000050_0001_1_18_H_._HHH_b1_01715_0001_0000200014_0000001_1_af2pred_0001 (protein)
chain: SSSSSSEVEEAEEEARQLYEEGDPKKALQVLAKAIRLAQELNDEELLRRLLRLIVELVGSSSSSS
B5: il10ra_site1_normal_mot_HHH_b2_00612_000000251_0001_1_14_H_._HHH_b2_04981_0001_0000500049_0000001_0 (protein)
chain: SSSSDEEFEEVRRLLERASELANEGDKEEAERLVEEAIELAREGGNQLLTESAEYLLRIIRSSSS
B6: il10ra_site1_sap_17_mot_HHH_b2_00984_000000042_0001_1_20_H_._HHH_b2_04529_0001_0000500016_0000002_0_0001_af2pred_0001 (protein)
chain: SSSSDEEEREEEFLELLIEALKIEDEEEAREVLRELEELLEELGDERLLELVRNALRLNESSSSS
B7: il10ra_site1_sap_14_mot_HHH_b1_03314_af2_000000278_0001_42_55_H_._HHH_b1_00297_af2_0001_0000200014_0000002_0_0001_af2pred_dldesign_0_af2pred (protein)
chain: SSSSAAARAFARETCQRLYELKKAGDEAGFEAAYAEARARLAAMGDPEALRLLEVTYELLSSSSS
B8: il10ra_site1_sap_26_mot_HHH_b2_03346_af2_000000019_0001_1_18_H_._HHH_b2_06191_af2_0001_0000200016_0000001_0_0001 (protein)
chain: SSSSDERRQELLRLLREAIRLALRGNPEEAERLLEEAERLAEELGDERALEMIRRLLEAIRSSSS
B9: il10ra_site1_sap_23_mot_HHH_b1_03574_000000194_0001_1_18_H_._HHH_b1_05868_0001_0000200012_0000002_0_0001 (protein)
chain: SSSSSDRDELYELIEEALELLARGNPEEAERVLEEARELAEELGNRVFLVVIRFLLKDIKSSSSS
B10: il10ra_site1_normal_mot_HHH_b1_01879_000000050_0001_1_18_H_._HHH_b1_05693_af2_0001_0000500020_0000001_0_af2pred_0001 (protein)
chain: SSSSDEEEIEELQKEAEELRERGNPEEALLVLAQAIILAQRLGNEELAEELLELLIEIFRNSSSS
B11: il10ra_site1_sap_29_mot_HHH_b1_03859_af2_000000004_0001_44_57_H_._HHH_b2_05239_0001_0000100007_0000001_0_0001_af2pred_0001 (protein)
chain: SSSSDEQNERAVRIALRFAREIDDEEYVRLALRFARFSAEELNDPELRRLVEEAEEELEKSSSSS
B12: il10ra_site1_normal_mot_HHH_b2_01235_000000294_0001_1_18_H_._HHH_b2_01483_0001_0000200021_0000001_0 (protein)
chain: SSSSTEESERVYELLKRVSELDLEGNPEEAREVLEEAQEIAEEANNLVLLATIESLERLLDSSSS
B13: il10ra_site1_normal_mot_HHH_b1_06816_000000239_0001_1_19_H_._HHH_b2_02034_0001_0000100005_0000001_0_af2pred_0001 (protein)
chain: SSSSSSDLEEQAEELLEEVEKIDNPEERTRVARKAIKLAVRAGNPELAREIARIATRLSSSSSSS
B14: il10ra_site1_sap_13_mot_HHH_b1_03277_000000286_0001_44_57_H_._HHH_b2_06223_af2_0002_0000300013_0000001_0_0001 (protein)
chain: SSSSDESQRVYELLREAAELHHNGDPEEAERVLEEAEEIVEELGSMNMRMVLEFLLRKVRESSSS
B15: il10ra_site1_sap_12_mot_HHH_b1_06819_af2_000000053_0001_23_38_H_._HHH_b1_06833_af2_0001_0000200005_0000001_0_0001 (protein)
chain: SSSSSEEQRLLELARELFRLMLRNDEEEARRVLEELLELAEQLGNEKVREMAEDLEKVLKSSSSS
B16: il10ra_site1_normal_mot_HHH_b1_08176_000000188_0001_1_20_H_._HHH_b2_05776_af2_0001_0000100004_0000001_0 (protein)
chain: SSSSNEELQEALELSLEALRLALRGNPEEAKEVLEKALELAERGNNPQLARQIEEMLRAQKSSSS
B17: il10ra_site1_sap_24_mot_HHH_b2_00800_af2_000000047_0001_1_20_H_._HHH_b1_03475_0001_0000600024_0000002_0_0001 (protein)
chain: SSSSSDVAELAQEALRLAFQNGDEEALQAVWRIVKRLARGLMDPEEAEELLQELIEELRSSSSSS
B18: il10ra_site1_normal_mot_HHH_b1_05937_af2_000000262_0001_20_37_H_._HHH_b1_01215_af2_0001_0000500035_0000001_0 (protein)
chain: SSSSDEVEERAEELIERIEELIENGNPEEALRLIIELLRLAFENRDEEIMKEAWRLAQLLRSSSS
B19: il10ra_site1_normal_mot_HHH_b2_00612_000000251_0001_1_14_H_._HHH_b1_00998_af2_0001_0000200009_0000002_0_af2pred_dldesign_0_af2pred (protein)
chain: SSSSSEEEVERRIEELLARAKAAGNPYLLESVEYLVARYRETGDPSCLEAAELALEQHEKLSSSS

The binders below were run against il10ra, Q13651 (assay: yeast display titration).

Q: Which “apparent Kd” value does the source give for B1 here?
A: inactive: no binding seen

Q: How did the “apparent Kd” value turn out when B2 was run?
A: inactive: no binding seen

Q: B3 was tested. Which “apparent Kd” value did it give?
A: inactive: no binding seen

Q: B4 was tested. Which “apparent Kd” value did it give?
A: inactive: no binding seen

Q: B5 was tested. Which “apparent Kd” value did it give?
A: inactive: no binding seen

Q: For B6, which “apparent Kd” value is on record?
A: inactive: no binding seen

Q: B7 was tested. Which “apparent Kd” value did it give?
A: inactive: no binding seen

Q: B8 was tested. Which “apparent Kd” value did it give?
A: inactive: no binding seen

Q: How did the “apparent Kd” value turn out when B9 was run?
A: inactive: no binding seen

Q: Which “apparent Kd” value does the source give for B10 here?
A: inactive: no binding seen

Q: With B11 as the binder, how does the “apparent Kd” value read?
A: inactive: no binding seen

Q: With B12 as the binder, how does the “apparent Kd” value read?
A: inactive: no binding seen

Q: For B13, which “apparent Kd” value is on record?
A: inactive: no binding seen

Q: With B14 as the binder, how does the “apparent Kd” value read?
A: inactive: no binding seen

Q: B15 was tested. Which “apparent Kd” value did it give?
A: inactive: no binding seen

Q: How did the “apparent Kd” value turn out when B16 was run?
A: inactive: no binding seen

Q: B17 was tested. Which “apparent Kd” value did it give?
A: inactive: no binding seen

Q: With B18 as the binder, how does the “apparent Kd” value read?
A: inactive: no binding seen

Q: For B19, which “apparent Kd” value is on record?
A: inactive: no binding seen
